Assay [1] deals with human 3xFLAG-CB1R (human) (UniProt P21554). Put plainly: co-IP; HEK-293T cells, transfected; lysates in GST buffer (50 mM Tris-HCl, 10% glycerol, 100 mM NaCl, 2 mM MgCl2, 1% NP-40, pH 7.4); IP with anti-FLAG M2 agarose.
For a further assay, the target named is human CB1R-myc (human) (UniProt P21554). Put plainly: proximity ligation; in situ PLA (Duolink) in fixed HEK-293T cells transfected with hCB1R-myc and 3xHA-hCRBN; anti-c-myc and anti-HA primary antibodies.
Assay [2] addresses mouse 3xFLAG-CB1R (mouse) (UniProt P47746). Put plainly: co-IP; HEK-293T cells, transfected; lysates in GST buffer (50 mM Tris-HCl, 10% glycerol, 100 mM NaCl, 2 mM MgCl2, 1% NP-40, pH 7.4); IP with anti-FLAG M2 agarose.
The target of assay [3] is endogenous mouse CB1R (hippocampus) (mouse (endogenous in hippocampus)) (UniProt P47746). The assay can be described thus: co-IP; adult mouse hippocampal tissue, extracts in DDM buffer (25 mM Tris-HCl pH 7.4, 140 mM NaCl, 2 mM EDTA, 0.5% n-dodecyl-β-D-maltoside); IP with anti-CB1R, anti-CRBN or IgG control, Protein G agarose.
Assay [4] has the same target. Put plainly: proximity ligation; in situ PLA (Duolink) in mouse hippocampal sections of WT, GABA-CB1R-KO, Glu-CB1R-KO and CB1R-KO mice; anti-CRBN and anti-CB1R primary antibodies.
The next assay concerns the target human CB1R-Rluc (human) (UniProt P21554). Put plainly: FRET or BRET; BRET saturation in HEK-293T cells; constant amount of CB1R-Rluc cDNA and increasing amounts of GFP-hCRBN. In general terms: In BRET a luciferase serves as donor, and the signal depends on an acceptor being close.

The chains behind the UniProt entries cited, without tags or fusion partners.
UniProt P21554: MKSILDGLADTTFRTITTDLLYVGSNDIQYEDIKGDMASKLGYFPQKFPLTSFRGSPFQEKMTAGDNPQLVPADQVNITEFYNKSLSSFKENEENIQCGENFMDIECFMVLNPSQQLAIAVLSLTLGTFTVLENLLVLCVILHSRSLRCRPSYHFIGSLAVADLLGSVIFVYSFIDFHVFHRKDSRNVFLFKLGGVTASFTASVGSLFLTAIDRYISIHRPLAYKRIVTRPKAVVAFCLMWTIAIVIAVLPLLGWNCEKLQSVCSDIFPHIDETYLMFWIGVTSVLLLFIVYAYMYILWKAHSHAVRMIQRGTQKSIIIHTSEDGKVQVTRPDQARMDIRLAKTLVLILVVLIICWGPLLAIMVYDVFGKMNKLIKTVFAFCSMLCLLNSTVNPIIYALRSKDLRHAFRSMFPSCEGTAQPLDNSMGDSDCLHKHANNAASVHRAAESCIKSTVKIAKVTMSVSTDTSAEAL
UniProt P47746: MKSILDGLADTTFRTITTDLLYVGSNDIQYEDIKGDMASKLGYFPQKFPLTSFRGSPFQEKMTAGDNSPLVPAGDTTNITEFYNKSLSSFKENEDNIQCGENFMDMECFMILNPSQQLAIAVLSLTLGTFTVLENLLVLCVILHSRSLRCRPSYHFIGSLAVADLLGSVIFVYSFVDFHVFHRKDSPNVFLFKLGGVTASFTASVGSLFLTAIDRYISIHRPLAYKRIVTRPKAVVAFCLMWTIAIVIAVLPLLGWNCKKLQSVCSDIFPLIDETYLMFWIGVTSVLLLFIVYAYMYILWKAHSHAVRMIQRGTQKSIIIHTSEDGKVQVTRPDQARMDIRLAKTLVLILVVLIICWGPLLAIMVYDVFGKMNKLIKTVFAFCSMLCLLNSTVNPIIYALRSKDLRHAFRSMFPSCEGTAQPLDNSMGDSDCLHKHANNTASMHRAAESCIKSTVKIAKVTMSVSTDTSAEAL
UniProt Q96SW2: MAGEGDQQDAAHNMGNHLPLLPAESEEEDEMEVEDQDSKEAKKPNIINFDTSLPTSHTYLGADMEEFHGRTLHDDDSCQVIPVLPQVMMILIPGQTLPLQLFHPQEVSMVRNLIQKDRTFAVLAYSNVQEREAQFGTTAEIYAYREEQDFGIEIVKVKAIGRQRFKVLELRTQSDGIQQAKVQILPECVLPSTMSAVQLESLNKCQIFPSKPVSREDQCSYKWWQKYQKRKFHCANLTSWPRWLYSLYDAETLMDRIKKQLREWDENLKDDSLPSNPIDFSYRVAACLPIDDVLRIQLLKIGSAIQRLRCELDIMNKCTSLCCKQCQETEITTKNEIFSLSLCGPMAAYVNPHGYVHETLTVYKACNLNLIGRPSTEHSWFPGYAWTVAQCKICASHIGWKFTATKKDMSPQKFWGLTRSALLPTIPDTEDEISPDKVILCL
UniProt Q8C7D2: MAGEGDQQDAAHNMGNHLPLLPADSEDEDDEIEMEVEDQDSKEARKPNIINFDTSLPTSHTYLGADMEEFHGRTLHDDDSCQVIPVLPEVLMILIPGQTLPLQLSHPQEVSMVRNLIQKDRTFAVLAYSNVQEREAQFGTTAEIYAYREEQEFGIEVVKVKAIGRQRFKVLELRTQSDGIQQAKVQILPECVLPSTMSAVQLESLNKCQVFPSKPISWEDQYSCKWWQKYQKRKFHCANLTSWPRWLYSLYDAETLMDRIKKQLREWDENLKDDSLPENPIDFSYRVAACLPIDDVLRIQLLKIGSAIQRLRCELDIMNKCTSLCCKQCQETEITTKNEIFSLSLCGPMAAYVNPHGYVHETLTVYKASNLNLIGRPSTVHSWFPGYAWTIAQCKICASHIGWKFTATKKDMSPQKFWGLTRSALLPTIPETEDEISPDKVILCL

No constants are given. Whether binding was seen depends on the method and setting. In cells and extracts the contact can be indirect. Some entries that bind do so weakly or less than the wild type.

As to “human 3xHA-CRBN (from UniProt Q96SW2 1-442)”, the binding result (in assay [1]; with human CB1R-myc (human)) was “binds” each time.

For the substance “mouse 3xHA-CRBN (from UniProt Q8C7D2 1-445)”, the binding entry in assay [2] is recorded as “binds”.

As to “endogenous mouse CRBN (hippocampus) (from UniProt Q8C7D2 1-445)”, the binding result in assay [3] and in assay [4] was “binds” each time.

On to “human GFP-CRBN (from UniProt Q96SW2 1-442)”, for which the binding entry with human CB1R-Rluc (human) is recorded as “binds”.
